Measured values taken from PMC12412611.
Results are given in words; binding and its absence hold for the method and conditions named. In cells and extracts the contact can be indirect. Some entries that bind do so weakly or less than the wild type. Sequences can lack the tags named with a protein. Each block holds one binder with its values, some of them ahead of it.

Tests used:
Assay in all cases: co-IP; HEK293T co-transfected with the plasmids; IP lysis buffer with PMSF; anti-Flag beads at 4 °C overnight; immunoblot; some panels with CQ (40 µM, 6 h) and with or without co-expressed GSDMD-CT
[1] = molecular target: T1, Flag-TBK1 (tank-binding kinase), Q9UHD2; settings: remark: other sources report otherwise
T1 chain: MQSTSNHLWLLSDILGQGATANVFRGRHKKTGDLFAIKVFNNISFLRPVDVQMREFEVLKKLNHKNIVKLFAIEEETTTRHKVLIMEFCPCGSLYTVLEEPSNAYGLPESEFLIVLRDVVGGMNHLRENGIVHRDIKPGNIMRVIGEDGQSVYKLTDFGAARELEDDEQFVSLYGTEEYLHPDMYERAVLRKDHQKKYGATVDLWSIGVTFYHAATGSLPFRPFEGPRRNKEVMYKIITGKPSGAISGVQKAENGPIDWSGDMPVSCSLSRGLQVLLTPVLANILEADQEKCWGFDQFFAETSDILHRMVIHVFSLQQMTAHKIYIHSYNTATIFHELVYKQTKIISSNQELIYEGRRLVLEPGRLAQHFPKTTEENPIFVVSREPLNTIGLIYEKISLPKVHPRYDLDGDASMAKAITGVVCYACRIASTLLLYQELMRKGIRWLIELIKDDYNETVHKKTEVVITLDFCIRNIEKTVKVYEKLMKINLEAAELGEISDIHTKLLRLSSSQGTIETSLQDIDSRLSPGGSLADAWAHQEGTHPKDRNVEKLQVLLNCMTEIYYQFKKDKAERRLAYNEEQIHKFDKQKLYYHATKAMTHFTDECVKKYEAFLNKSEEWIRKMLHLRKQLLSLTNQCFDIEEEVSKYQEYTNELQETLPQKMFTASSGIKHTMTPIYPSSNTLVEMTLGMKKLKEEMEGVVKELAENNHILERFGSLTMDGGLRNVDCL

[2] = molecular target: T2, Flag-RIG-I (retinoic acid-inducible gene I), O95786; settings: remark: other sources report otherwise
T2 chain: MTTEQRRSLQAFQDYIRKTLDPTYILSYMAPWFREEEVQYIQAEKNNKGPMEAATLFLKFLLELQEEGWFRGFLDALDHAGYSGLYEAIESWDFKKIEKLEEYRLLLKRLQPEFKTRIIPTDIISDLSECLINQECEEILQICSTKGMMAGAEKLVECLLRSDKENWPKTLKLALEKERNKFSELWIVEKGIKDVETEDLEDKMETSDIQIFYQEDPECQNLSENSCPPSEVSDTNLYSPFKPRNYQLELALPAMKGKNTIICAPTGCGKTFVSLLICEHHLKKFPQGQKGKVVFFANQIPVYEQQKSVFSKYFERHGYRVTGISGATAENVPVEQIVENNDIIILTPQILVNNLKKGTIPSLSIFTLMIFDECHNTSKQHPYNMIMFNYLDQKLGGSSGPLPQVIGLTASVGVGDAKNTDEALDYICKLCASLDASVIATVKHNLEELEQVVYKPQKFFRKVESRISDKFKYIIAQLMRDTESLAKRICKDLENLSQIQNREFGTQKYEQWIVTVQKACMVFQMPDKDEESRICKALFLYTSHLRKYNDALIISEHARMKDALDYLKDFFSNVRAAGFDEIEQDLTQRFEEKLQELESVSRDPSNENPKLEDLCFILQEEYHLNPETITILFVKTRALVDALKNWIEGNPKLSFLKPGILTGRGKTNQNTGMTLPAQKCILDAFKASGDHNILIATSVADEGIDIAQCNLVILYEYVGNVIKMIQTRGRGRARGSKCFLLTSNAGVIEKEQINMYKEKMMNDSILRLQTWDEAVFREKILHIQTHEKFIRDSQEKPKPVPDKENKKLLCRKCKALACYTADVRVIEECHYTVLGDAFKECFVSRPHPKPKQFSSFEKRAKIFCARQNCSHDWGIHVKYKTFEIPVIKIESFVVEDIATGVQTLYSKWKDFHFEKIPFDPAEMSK

[3] = molecular target: T3, TBK1 (tank-binding kinase), overexpressed, tag not told for these experiments (UniProt Q9UHD2)
T3 sequence: T1 chain

[4] = molecular target: T4, RIG-I (retinoic acid-inducible gene I), overexpressed, tag not told for these experiments (UniProt O95786)
T4 sequence: T2 chain

binding [1]: binds
binding [2]: binds
B1: HA-TRIM28 (Tripartite motif-containing 28), Q13263 1-835 (enzyme)
chain: MAASAAAASAAAASAASGSPGPGEGSAGGEKRSTAPSAAASASASAAASSPAGGGAEALELLEHCGVCRERLRPEREPRLLPCLHSACSACLGPAAPAAANSSGDGGAAGDGTVVDCPVCKQQCFSKDIVENYFMRDSGSKAATDAQDANQCCTSCEDNAPATSYCVECSEPLCETCVEAHQRVKYTKDHTVRSTGPAKSRDGERTVYCNVHKHEPLVLFCESCDTLTCRDCQLNAHKDHQYQFLEDAVRNQRKLLASLVKRLGDKHATLQKSTKEVRSSIRQVSDVQKRVQVDVKMAILQIMKELNKRGRVLVNDAQKVTEGQQERLERQHWTMTKIQKHQEHILRFASWALESDNNTALLLSKKLIYFQLHRALKMIVDPVEPHGEMKFQWDLNAWTKSAEAFGKIVAERPGTNSTGPAPMAPPRAPGPLSKQGSGSSQPMEVQEGYGFGSGDDPYSSAEPHVSGVKRSRSGEGEVSGLMRKVPRVSLERLDLDLTADSQPPVFKVFPGSTTEDYNLIVIERGAAAAATGQPGTAPAGTPGAPPLAGMAIVKEEETEAAIGAPPTATEGPETKPVLMALAEGPGAEGPRLASPSGSTSSGLEVVAPEGTSAPGGGPGTLDDSATICRVCQKPGDLVMCNQCEFCFHLDCHLPALQDVPGEEWSCSLCHVLPDLKEEDGSLSLDGADSTGVVAKLSPANQRKCERVLLALFCHEPCRPLHQLATDSTFSLDQPGGTLDLTLIRARLQEKLSPPYSSPQEFAQDVGRMFKQFNKLTEDKADVQSIIGLQRFFETRMNEAFGDTKFSAVLVEPPPMSLPGAGLSSQELSGGPGDGP

binding [3]: binds
binding [4]: binds
B2: NDP52 (protein, UniProt Q13137 1-446)
chain: MEETIKDPPTSAVLLDHCHFSQVIFNSVEKFYIPGGDVTCHYTFTQHFIPRRKDWIGIFRVGWKTTREYYTFMWVTLPIDLNNKSAKQQEVQFKAYYLPKDDEYYQFCYVDEDGVVRGASIPFQFRPENEEDILVVTTQGEVEEIEQHNKELCKENQELKDSCISLQKQNSDMQAELQKKQEELETLQSINKKLELKVKEQKDYWETELLQLKEQNQKMSSENEKMGIRVDQLQAQLSTQEKEMEKLVQGDQDKTEQLEQLKKENDHLFLSLTEQRKDQKKLEQTVEQMKQNETTAMKKQQELMDENFDLSKRLSENEIICNALQRQKERLEGENDLLKRENSRLLSYMGLDFNSLPYQVPTSDEGGARQNPGLAYGNPYSGIQESSSPSPLSIKKCPICKADDICDHTLEQQQMQPLCFNCPICDKIFPATEKQIFEDHVFCHSL
